Assay results taken from PubChem BioAssay AID1508619 (National Center for Advancing Translational Sciences (NCATS), 2020).
“And” between values parts separate entries of the source, which are not always exact repeats. Equal values may be shown once. Inconclusive means that the source gave no clear call. Such entries were picked first, then a sample of the others. A potency beside an inconclusive call is a rough fit, not a confirmed value. The source made the active and inactive calls. Calls follow the shape of the dose curve; as a rule, active = well fitted inhibition curve with a large enough effect; inconclusive = small, poorly fitted or top-dose-only effect; inactive = no such curve, though single readings can be large or run the other way.

assay: Counterscreen qHTS for Identification of Calcium Integrin Binding Protein 1 (CIB1) Competitor; conditions: series mostly up to 114 µM; activity, negative = inhibition: at the top concentration
Excerpt: Assay Provider: Ulhas P. Naik, PhD
Sidney Kimmel Medical College
Thomas Jefferson University, Philadelphia, PA
Primary function of platelets is to maintain hemostasis. At the site of vascular injury, platelets adhere to adhesive proteins such as collagen and von Willebrand factor. Adherent platelets are activated and generate soluble platelet agonists such as thrombin, ADP and thromboxane A2. Following exposure of circulating platelets to these agonists, results in platelet shape change, granule secretion and activation of platelet integrin alphaIIb-beta3. Ligand binding to activated integrin alphaIIb-beta3 triggers outside-in signaling, leading to platelet aggregation, stabilization of platelet plug, and clot retraction. Upon atherosclerotic plaque rupture also causes platelet plug formation, which underlies a number of cardiovascular diseases such as myocardial infraction and stroke. A number of anti-platelet drugs such as aspirin, clopidogrel, prasugrel, vorapaxar, and eptifibatide are currently available to prevent the thrombotic complications. However, these anti-platelet agents have several limitations including inherent variability in individual responses, developing resistance, and serious bleeding side effects. For these reasons they are not suitable for long-term protection. Based on the experiences with current anti-platelet drugs, it appears that the most useful therapeutic approach is to intersect the secondary responses such as integrin outside-in signaling or recruitment of platelets by TxA2 and secreted ADP. Compounds, which can largely preserve the primary hemostatic function of platelets but inhibit secondary response will be most desired therapeutic agents for treatment of cardiovascular disease.
CIB1 is a calcium integrin binding protein, which specifically interact with the alphaIIb subunit of integrin alphaIIb-beta3. Binding of CIB1 to alphaIIb regulates the outside-in signaling in platelets, which is needed for thrombus stabilization and thrombus growth. […] Therefore, we propose that discovery of a small molecule that can prevent the association of CIB1 and alphaIIb-beta3 will be a potential anti-platelet agent that can block the thrombus formation without undue effect on hemostasis.
To develop fluorescence polarization (FP) assay using fluorescently labeled alphaIIb peptide and CIB1 protein. Using FP assay characterize the binding affinity, competitive inhibition, and acceptable Z factor (0.5 to1) in order to perform the HTS to identify small molecule compound that can prevent CIB1 binding to platelet integrin alphaIIb-beta3. Active compounds were re-acquired and validated using confirmatory and counterscreens (using 100 nM scrambled peptide).
[1] Naik MU, Nigam A, Manrai P, et al. CIB1 deficiency results in impaired thrombosis: the potential role of CIB1 in outside-in signaling through integrin alpha IIb beta 3. J Thromb Haemost. 2009;7(11):1906-1914. doi:10.1111/j.1538-7836.2009.03581.
SEQUENCE No. (1, 2, 3, etc.); […] (e.g., Cells, Incubation, Reagent, etc.); VALUE and DESCRIPTION.
1; Reagent; 3 uL; Protein or buffer (4/3x)
2; Compound; 46 nL; Control inhibitor / compound library
3; Time; 15 min; Room temperature incubation
4; Reagent; 1 uL; Fluorescent labeled peptide (4x)
5; Time; 1000 rpm; Centrifuge
6; Time; 15 min; Room temperature incubation
7; Detection; Ex 480/ Em 540; ViewLux Fluorescence Read
NOTES (numbers refer to sequence above)
1; Protein Mixture: C1B1-GST (final concentrations of 1 uM). Buffer composition: 5 mM HEPES pH 7.4, 125 mM NaCl, 5 mM CaCl2, 0.01% Tween20.
2; Control Inhibitor: unlabeled peptide (final concentration range 17.4 nM to 572 uM). Compound Library final concentration range 18.3 nM to 114 uM.
3; Room temperature incubation.
4; Fluorescent Labeled Peptide: FITC-alphaIIb (final concentration of 100 nM). Sequence of Scrambled peptide: Acetyl-[…]-FITC (purity is 95.37%).
6; Room temperature incubation.
[…]
% is scaled to controls: 0 for no effect and ±100 for the full control effect; potency is read from the fitted curve at half-maximal effect.

Question: With `O=c1c2ccccc2nc2sc(Nc3cccc(N4CCN5CCCCC5C4)c3)nn12` (stereo not given) as the compound, how does the Potency read?
Answer: inconclusive: 56.2 µM [inhibitor, partial curve, poor fit]

Question: Which Potency does the source give for `Cc1cc2c(C(C)C)c(O)c(O)c(C=O)c2c(O)c1-c1c(C)cc2c(C(C)C)c(O)c(O)c(C=O)c2c1O` here?
Answer: inactive and inconclusive: 7.08 µM [inhibitor, full curve]

Question: With `COC(=O)c1cc(Cl)ccc1NS(=O)(=O)C(F)(F)F` as the compound, how does the “activity, negative = inhibition” value read?
Answer: inactive: 5.61%

Question: Which Potency does the source give for `Oc1ccc2ccccc2c1SSc1c(O)ccc2ccccc12` here?
Answer: inconclusive: 31.6 µM [inhibitor, full curve]

Question: With `CN1CCCN(C(=O)c2cccc(-c3ccc(C=C4C(=O)Nc5ccc(Cl)cc54)o3)c2)CC1` as the compound, how does the Potency read?
Answer: active: 35.5 µM

Question: Which Potency does the source give for `CN(C(=O)c1cccs1)c1cccnc1` here?
Answer: active: 44.7 µM

Question: For `C=CCNc1oc(-c2ccc(Cl)cc2)nc1C#N`, which Potency is on record?
Answer: inconclusive: 12.6 µM [inhibitor, full curve]

Question: Which “activity, negative = inhibition” value does the source give for `CN1CCC(N(Cc2cccs2)c2ccccc2)CC1` here?
Answer: inactive: 7.51%

Question: For `CO[C@@]12[C@H](COC(N)=O)C3=C(C(=O)C(C)=C(N)C3=O)N1C[C@@H]1N[C@@H]12`, which “activity, negative = inhibition” value is on record?
Answer: inactive: -15.1%

Question: For `Cc1ccc(Cl)cc1NC(=O)c1nc[nH]c1C(=O)Nc1nc2ccccc2[nH]1`, which “activity, negative = inhibition” value is on record?
Answer: inactive: -17.6%

Question: Which Potency does the source give for `O=C1CCCC2=C1C(c1ncccc1C(F)(F)F)N=C(Nc1nc3ccccc3o1)N2` (stereo not given) here?
Answer: inconclusive: 28.2 µM [inhibitor, partial curve, poor fit]

Question: With `Oc1cccc2cc(N3CCCC3)cnc12` as the compound, how does the Potency read?
Answer: inconclusive: 17.8 µM [inhibitor, full curve, poor fit]

Question: Which Potency does the source give for `CN(C)CCCNC(=O)c1ccc(-c2cc(O)c3ncccc3c2)cc1` here?
Answer: inconclusive: 70.8 µM [inhibitor, partial curve, poor fit]

Question: Which Potency does the source give for `O=C(O)c1ccc(O)c2ncc(-c3n[nH]nc3-c3ccccc3)cc12` here?
Answer: inactive

Question: For `CCOC(=O)c1[nH]c2c(c1C)C(=S)CC(c1ccco1)C2` (stereo not given), which Potency is on record?
Answer: inconclusive: 7.08 µM [inhibitor, full curve, poor fit]

Question: With `O=S(=O)(c1ccc2nc(Cl)c(Cl)nc2c1)N1CCN(S(=O)(=O)c2c(F)cccc2F)CC1` as the compound, how does the “activity, negative = inhibition” value read?
Answer: inactive: -20%

Question: For `NC[C@H](O)c1ccc(O)c(O)c1`, which Potency is on record?
Answer: inactive

Question: With `COc1cc(/C=C2/C(=O)Nc3ccccc32)cc(OC)c1O` as the compound, how does the Potency read?
Answer: inconclusive: 44.7 µM [inhibitor, partial curve, poor fit]

Question: With `O=C(O)c1ccc(-c2ccc3ncnc(N4CCOCC4)c3c2)o1` as the compound, how does the Potency read?
Answer: inconclusive: 5.62 µM [inhibitor, partial curve, poor fit]

Question: Which “activity, negative = inhibition” value does the source give for `CCCCCCCCCCCCCCCC[N+](C)(C)CCN(Cc1ccc(OC)cc1)c1ncccn1` here?
Answer: inactive: 73.9%

Question: Which Potency does the source give for `Cc1ccc(CNc2ncnc3ccc(-c4ccc([C@@H](C)O)o4)cc23)o1` here?
Answer: inconclusive: 56.2 µM [inhibitor, partial curve, poor fit] and inconclusive: 39.8 µM [inhibitor, partial curve]

Question: For `CCOc1ccc2nc3cc(N)ccc3c(N)c2c1`, which Potency is on record?
Answer: active: 31.6 µM

Question: Which Potency does the source give for `CCc1oc2ccccc2c1C(=O)c1cc(I)c(O)c(I)c1` here?
Answer: active: 100 µM

Question: For `C=C(CC)C(=O)c1ccc(OCC(=O)O)c(Cl)c1Cl`, which “activity, negative = inhibition” value is on record?
Answer: inactive: -29.6%

Question: Which “activity, negative = inhibition” value does the source give for `O=Cc1c(-c2ccccc2)no[n+]1[O-]` here?
Answer: inactive: -2.24%

Question: Which Potency does the source give for `CCOC(=O)c1nn(-c2ccc(OC)cc2)c(=O)c2c(N)scc12` here?
Answer: inconclusive: 20 µM [inhibitor, partial curve]

Question: For `O=C(Nc1nc(-c2ccccc2)cs1)c1ccncc1NS(=O)(=O)c1cccc2cccnc12`, which Potency is on record?
Answer: inconclusive: 70.8 µM [inhibitor, partial curve, poor fit]

Question: With `O=C(O)c1ccc(O)c2ncc(N3CCC(N4CCOCC4)C3)cc12` (stereo not given) as the compound, how does the “activity, negative = inhibition” value read?
Answer: inactive: -3.62%

Question: With `O=C1c2ccccc2C(=O)c2c1ccc(O)c2O` as the compound, how does the Potency read?
Answer: active: 22.4 µM

Question: With `Oc1ccc(-c2nn[nH]n2)c2cccnc12` as the compound, how does the Potency read?
Answer: inconclusive: 35.5 µM [inhibitor, full curve, poor fit]

Question: Which “activity, negative = inhibition” value does the source give for `O=C1CCCC2=C1C(c1cccnc1Br)N=C(Nc1nc3ccccc3o1)N2` (stereo not given) here?
Answer: inactive: 17.1%

Question: With `O=[S+]([O-])(Nc1ccc(N2CCNCC2)cc1)c1ccc(NCc2ccc(Br)cc2O)cc1` as the compound, how does the Potency read?
Answer: inconclusive: 44.7 µM [inhibitor, partial curve]

Question: With `O=c1cc(-c2ccccc2)oc2cc(O)c(O)c(O)c12` as the compound, how does the Potency read?
Answer: inconclusive: 39.8 µM [inhibitor, partial curve]

Question: For `Nc1cc(C(F)(F)F)ccc1S`, which Potency is on record?
Answer: inconclusive: 12.6 µM [inhibitor, full curve, poor fit]

Question: With `CCOC(=O)C1CCN(C(=O)C(C)(C)NC(=O)Nc2ccc(C#N)cc2)CC1` as the compound, how does the Potency read?
Answer: inconclusive: 15.8 µM [inhibitor, full curve, poor fit]

Question: Which Potency does the source give for `CO[C@@H]1C(N(C)C(=O)c2ccccc2)C[C@H]2O[C@]1(C)n1c3ccccc3c3c4c(c5c6ccccc6n2c5c31)C(=O)NC4=O` (stereo not given in full) here?
Answer: active: 22.4 µM

Question: For `CC1(C)N=C(Nc2nc3ccccc3o2)NC2=C1C(=O)CCC2`, which “activity, negative = inhibition” value is on record?
Answer: inactive: -8.36%

Question: Which Potency does the source give for `Cc1cc(Nc2c(Nc3nnc(-c4ccncc4)s3)c(=O)c2=O)ccc1Cl` here?
Answer: inconclusive: 44.7 µM [inhibitor, partial curve]

Question: With `CC(=O)NC(c1cccs1)c1cc(Br)c2cccnc2c1O` (stereo not given) as the compound, how does the Potency read?
Answer: inactive

Question: For `C=CCNc1oc(-c2ccc(-c3ccccc3)cc2)nc1C#N`, which “activity, negative = inhibition” value is on record?
Answer: inactive: -5.95%
